Experimental data taken from PMC6029018.
No constants are given. Whether binding was seen depends on the method and setting. Binding seen in cells or lysates may run through a third protein. Some entries that bind do so weakly or less than the wild type.

Amino acid sequences for entries named in this document (tags omitted).
UniProt Q9UNS2: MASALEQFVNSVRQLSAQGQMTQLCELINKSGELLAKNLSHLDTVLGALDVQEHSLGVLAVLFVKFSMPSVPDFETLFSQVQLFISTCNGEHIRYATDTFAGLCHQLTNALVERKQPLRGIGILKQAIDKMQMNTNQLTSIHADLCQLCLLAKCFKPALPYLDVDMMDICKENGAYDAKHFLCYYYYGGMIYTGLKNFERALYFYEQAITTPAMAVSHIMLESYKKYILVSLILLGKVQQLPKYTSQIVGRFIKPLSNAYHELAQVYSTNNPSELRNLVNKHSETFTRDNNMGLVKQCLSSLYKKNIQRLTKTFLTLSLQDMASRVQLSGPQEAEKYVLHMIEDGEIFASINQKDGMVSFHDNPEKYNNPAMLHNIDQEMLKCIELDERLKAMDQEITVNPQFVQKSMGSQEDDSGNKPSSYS
UniProt Q14457: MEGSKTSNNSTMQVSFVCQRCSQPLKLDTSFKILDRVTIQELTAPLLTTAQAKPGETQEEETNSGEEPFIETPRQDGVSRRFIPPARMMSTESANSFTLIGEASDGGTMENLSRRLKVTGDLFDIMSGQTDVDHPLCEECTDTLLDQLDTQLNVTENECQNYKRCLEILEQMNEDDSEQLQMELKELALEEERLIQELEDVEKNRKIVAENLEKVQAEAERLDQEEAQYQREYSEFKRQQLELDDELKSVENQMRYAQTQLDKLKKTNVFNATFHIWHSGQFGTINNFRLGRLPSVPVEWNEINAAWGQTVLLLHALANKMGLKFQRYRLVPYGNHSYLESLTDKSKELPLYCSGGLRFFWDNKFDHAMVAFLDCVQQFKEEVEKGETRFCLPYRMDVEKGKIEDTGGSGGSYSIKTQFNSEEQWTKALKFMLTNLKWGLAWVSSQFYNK

Experiments:
[1] = molecular target: Raf-1 kinase (human (endogenous in 143B and HOS)) (UniProt P04049); experiment: co-IP; endogenous proteins in whole cell lysates of 143B or HOS cells; antibody (COPS3 or Raf-1) 3 h at 4 °C, Protein A-Agarose 1 h, washed three times with lysis solution, immunoblot; for LC3 cells with or without 1 mM H2O2 for 4 h
[2] = molecular target: COP9 signalosome subunit 3 (COPS3) (human (endogenous in 143B and HOS)) (UniProt Q9UNS2); experiment: co-IP; endogenous proteins in separated cytoplasmic and nuclear extracts of 143B or HOS cells (NE-PER reagents); anti-COPS3 precipitation, Protein A-Agarose, immunoblot for Beclin1
[3] = molecular target: COP9 signalosome subunit 3 (COPS3) (human (endogenous in 143B and HOS)) (UniProt Q9UNS2); experiment: co-IP; endogenous proteins in whole cell lysates of 143B or HOS cells; antibody (COPS3 or Raf-1) 3 h at 4 °C, Protein A-Agarose 1 h, washed three times with lysis solution, immunoblot; for LC3 cells with or without 1 mM H2O2 for 4 h

Row | Substance | binding [1] | binding [2] | binding [3]
1 | COP9 signalosome subunit 3 (COPS3) (from UniProt Q9UNS2 1-423) | binds |  | 
2 | Beclin1 (from UniProt Q14457 1-450) |  | binds | binds
3 | Raf-1 kinase (from UniProt P04049 1-648) |  |  | binds
